{"source": "patent US9156855B2", "about": "“Regulation of nitric oxide release and biofilm development” (Newsouth Innovation Pty Limited, priority 2011, dated 2015)", "system": "extracellular β-lactamases of P. aeruginosa", "type": "biochemical", "conditions": "P. aeruginosa culture treated 1 h; imipenem 0.5 μg/ml or ampicillin 100 μg/ml", "note": "At least one structure is not confirmed: it was looked up by name or label, or the drawing left a doubt."}
{"molecule": "C[C@@H](O)[C@H]1C(=O)N2C(C(=O)O)=C(SCCN=CN)C[C@H]12", "note": "[imipenem]", "values": [{"measurement": "induction of extracellular β-lactamase expression", "result": "affords extracellular β-lactamase expression"}]}
